Measurements reported in PubChem BioAssay AID504834 (National Center for Advancing Translational Sciences (NCATS), 2011).
The campaign covered roughly 320,000 compounds. About 22,000 (6.9%) were called active. Inconclusive results, whose numbers are uncertain, are shown with a selection of clear calls. Calls follow the shape of the dose curve; as a rule, active = well fitted inhibition curve with a large enough effect; inconclusive = small, poorly fitted or top-dose-only effect, or another doubt; inactive = no such curve, though single readings can be large or run the other way. Where the call is inconclusive, the potency comes from a doubtful curve fit.
Potency is read from the fitted curve at half-maximal effect.

Assay: Primary qHTS for delayed death inhibitors of the malarial parasite plastid, 96 hour incubation
Settings: P. falciparum luciferase reporter growth; series mostly up to 28.7 µM
Summary of the method: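 Plates of compound plus infected erythrocytes (2% hematocrit, 0.05% parasitemia final) incubate 96 hours, 37 C, 5% CO2. Detection reagent added; reduced luminescence from the parasites' luciferase reporter flags inhibition.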
With O=C1CCC(=O)N1c1ccc(S(=O)(=O)Nc2cccc([N+](=O)[O-])c2)cc1 the Potency was inconclusive: 1.65 µM [inhibitor, full curve]. In the case of CC1CN(C(=O)CSc2nnc(-c3ccncc3)n2-c2ccccc2)CC(C)O1 (stereo unspecified), the Potency is reported as active: 10.4 µM. For Cc1cccc(OCC(=O)Nc2cc(Cl)ccc2-n2cncn2)c1C, the Potency was inconclusive: 13.1 µM [inhibitor, single point]. For O=C(NCc1cccnc1)C(Cl)(Cl)Cl, the Potency was active: 3.7 µM. In the case of COc1cccc(-n2c(Cc3cc(=O)[nH]c(=O)[nH]3)nnc2SCC(=O)N2CCCCC2)c1, the Potency is reported as “inactive”. In the case of CN(C(=O)CSc1nc2ccccc2c(=O)n1-c1ccc(F)cc1)C1CCS(=O)(=O)C1 (stereo unspecified), the Potency is reported as inconclusive: 18.5 µM [inhibitor, single point]. With Cc1ccc(N(C(=O)CNC(=O)c2cccs2)C(C(=O)NC2CCCC2)c2ccncc2)cc1 (stereo unspecified) the Potency was inconclusive: 4.65 µM [inhibitor, partial curve, poor fit]. With Cn1c(Cn2c(=O)sc3ccccc32)nnc1SCC(=O)Nc1ccccc1F the Potency was inconclusive: 3.29 µM [inhibitor, full curve]. For CCCNC(=S)N1CCC(NC(=O)c2ccc(C)cc2)CC1, the Potency was “inactive”. With O=C(CCc1ccc(S(=O)(=O)N2CCOCC2)cc1)NCCCN1CCCC1=O the Potency was inconclusive: 5.22 µM [inhibitor, partial curve]. With COC(=O)c1ccc(-c2ccc(Cl)cc2)nc1C the Potency was “inactive”. For C=CCn1cccc(C(=O)Nc2ccc(SC)cc2)c1=O, the Potency was “inactive”. In the case of COc1ccc(C(CNC(=O)c2ccc(N3CCCC3=O)cc2)N2CCCC2)cc1 (stereo unspecified), the Potency is reported as inconclusive: 16.5 µM [inhibitor, single point]. In the case of CCCCC(=O)N/N=C/c1c(O)n(CCc2ccc(OC)c(OC)c2)c(=O)[nH]c1=O, the Potency is reported as inconclusive: 7.38 µM [inhibitor, single point]. For COc1ccc(Cc2nnc(NC(=O)Nc3ccccc3F)s2)cc1OC, the Potency was active: 11.7 µM. For O=C(OCc1nnc(-c2ccc(Br)cc2)o1)c1cncc(Br)c1, the Potency was “inactive”. For Cc1ccc(/C=N/NC(=O)C2CC(=O)N(c3ccccc3)C2)s1 (stereo unspecified), the Potency was “inactive”. With COc1ccc(NC(=O)c2ccc3ncsc3c2)c2ccccc12 the Potency was “inactive”. In the case of c1ccc(OCCN2CCOCC2)cc1, the Potency is reported as inconclusive: 18.5 µM [inhibitor, single point]. In the case of CCc1ccccc1OCC(=O)Nc1ccc(F)c(S(=O)(=O)N2CCOCC2)c1, the Potency is reported as active: 13.1 µM. With Cn1cc([N+](=O)[O-])c(C(=O)N/N=C/c2ccc3c(c2)OCO3)n1 the Potency was inconclusive: 0.0033 µM [inhibitor, full curve, poor fit]. In the case of Cc1cc(O)ccc1N/C=C1\CCCC1=O, the Potency is reported as inconclusive: 18.5 µM [inhibitor, single point]. For Cc1ccc(-c2nc(=S)c3c(n2Cc2ccco2)CCCC3)cc1, the Potency was “inactive”. For O=C(O)Cn1cc(C(=S)N2CCCCC2)c2ccccc21, the Potency was active: 8.28 µM. In the case of O=C(Nc1nccs1)c1ccc(-c2ccc(Cl)cc2Cl)o1, the Potency is reported as “inactive”. In the case of Cc1ccsc1C(=O)OCC(=O)Nc1sccc1C(N)=O, the Potency is reported as “inactive”. With CCOC(=O)COc1ccc2c(=O)cc(-c3ccccc3)oc2c1 the Potency was “inactive”. In the case of COC(=O)c1ccc(OCC(=O)c2ccc(C)c(C)c2)cc1, the Potency is reported as “inactive”. With Cc1ccc(S(=O)(=O)N2CCC(C(=O)N/N=C/c3ccccc3[N+](=O)[O-])CC2)cc1 the Potency was inconclusive: 18.5 µM [inhibitor, single point]. For COc1cc(/C=N/NC(=O)C2c3ccccc3Oc3ccccc32)ccc1O, the Potency was active: 13.1 µM. In the case of CCOC(=O)CSc1nnc(C)n1N, the Potency is reported as inconclusive: 0.0033 µM [inhibitor, full curve, poor fit]. For CCOC(=O)c1c(C)n(C)c2ccc(OC)c(NC(=O)c3cccs3)c12, the Potency was inconclusive: 1.17 µM [inhibitor, partial curve, poor fit]. For Cc1cc2nc(C)n(CCCN)c2cc1C, the Potency was “inactive”. With CCOC(=O)C1(Cc2cccc(OC)c2)CCCN(S(=O)(=O)CC)C1 (stereo unspecified) the Potency was inconclusive: 16.5 µM [inhibitor, single point]. With CC1(C)CC(=O)c2c(n(-c3cccc4ccccc34)ccc2=O)C1 the Potency was inconclusive: 4.15 µM [inhibitor, partial curve, poor fit]. With CCC(=O)Nc1ccc(NC(=O)c2ccco2)c(OC)c1 the Potency was inconclusive: 7.38 µM [inhibitor, partial curve, poor fit]. For CCn1cc(CNC(=O)C2CCC(=O)N(Cc3ccccc3F)C2)cn1 (stereo unspecified), the Potency was inconclusive: 1.04 µM [inhibitor, full curve, poor fit]. For O=c1[nH]c(C2CCCN(S(=O)(=O)c3ccccc3Cl)C2)nc2c1nnn2Cc1ccc2c(c1)OCCO2 (stereo unspecified), the Potency was active: 13.1 µM. In the case of COC(=O)c1sccc1NC(=O)Nc1cccc(F)c1, the Potency is reported as “inactive”. In the case of c1ccc(-c2ccc(C3=Nn4c(nnc4-c4cc(-c5ccccc5)n[nH]4)SC3)cc2)cc1, the Potency is reported as active: 11.7 µM. With COc1nccc(C(F)(F)F)c1C(=O)NC(=O)Nc1c(C)cccc1C the Potency was inconclusive: 16.5 µM [inhibitor, single point]. In the case of CS(=O)(=O)c1ccccc1C(=O)N(CCC1=CCCCC1)c1c(N)n(Cc2ccccc2)c(=O)[nH]c1=O, the Potency is reported as inconclusive: 18.5 µM [inhibitor, single point]. In the case of Cc1c(C)c(C)c(CO/N=C/c2cccs2)c(C)c1C, the Potency is reported as inconclusive: 18.5 µM [inhibitor, single point]. In the case of O=S(=O)(c1ccc(Cl)cc1Cl)N1CCCC1c1cccnc1 (stereo unspecified), the Potency is reported as inconclusive: 9.28 µM [inhibitor, partial curve, poor fit]. With CC(C)[C@H](NC(=O)C1CC(=O)N(c2ccc(F)cc2)C1)C(=O)N1CCCCC1 (stereo partly specified) the Potency was “inactive”. With O=C1CCCN1c1ncc(S(=O)(=O)c2ccc([N+](=O)[O-])cc2)s1 the Potency was active: 4.15 µM. For COc1ccc(OC)c(N(CC(=O)O)S(=O)(=O)c2ccc(OC)c(OC)c2)c1, the Potency was inconclusive: 4.15 µM [inhibitor, partial curve, poor fit]. For CC1=C(C(N)=O)C(c2ccccc2[N+](=O)[O-])n2ncnc2N1 (stereo unspecified), the Potency was “inactive”. For CC(C)OC(=O)CN1CCN(c2ccc(Cl)cc2)CC1, the Potency was inconclusive: 18.5 µM [inhibitor, single point]. With CCn1c(C)[n+](CCOCC[n+]2c(C)n(CC)c3cc(Cl)c(Cl)cc32)c2cc(Cl)c(Cl)cc21 the Potency was active: 10.4 µM. With O=C(CC1CCCCC1)N1CCC(c2nc(-c3ccc(S(=O)(=O)N4CCCC4)cc3)no2)CC1 the Potency was inconclusive: 18.5 µM [inhibitor, single point]. For Cc1[nH]n(-c2ncc(-c3ccc(Cl)cc3)s2)c(=O)c1C(c1ccc(Cl)cc1)C(C#N)C#N (stereo unspecified), the Potency was “inactive”. For CSc1cccc(CNC(=O)C2CCC(=O)N(CC3CCCCC3)C2)c1 (stereo unspecified), the Potency was inconclusive: 11.7 µM [inhibitor, partial curve, poor fit]. In the case of O=C(CSc1nnc(-c2ccc(Br)cc2)o1)Nc1cccc2ccccc12, the Potency is reported as inconclusive: 9.28 µM [inhibitor, single point]. For COc1ccc(-c2cnc3ccccc3n2)cc1NC(=O)CNC(=O)c1ccccc1, the Potency was inconclusive: 18.5 µM [inhibitor, single point]. For Clc1ccc(Cn2c(-c3cccnc3Cl)nc3ccccc32)c(Cl)c1, the Potency was inconclusive: 11.7 µM [inhibitor, partial curve, poor fit]. With COc1ccccc1C/C(N)=N/OC(=O)COc1ccc(C)cc1 the Potency was active: 2.08 µM. In the case of COc1ccc(C(=O)c2c(C)c3ccccc3n2CC(O)CNC(C)C)cc1 (stereo unspecified), the Potency is reported as inconclusive: 18.5 µM [inhibitor, single point]. For O=c1[nH]c(=O)n(-c2ccccc2)c2c1C(C(F)(F)F)(C(F)(F)F)N=C(C1CCCCC1)N2, the Potency was inconclusive: 1.85 µM [inhibitor, partial curve]. With CCc1ccc(OCCNc2cc(N3CCNC(C)C3)ccc2[N+](=O)[O-])cc1 (stereo unspecified) the Potency was inconclusive: 9.28 µM [inhibitor, partial curve, poor fit]. In the case of CCCN(CCC)C(=S)Nc1cc(C(=O)OC)ccc1C(=O)OC, the Potency is reported as inconclusive: 18.5 µM [inhibitor, single point]. In the case of CCN(CC)S(=O)(=O)c1cccc(NC(=O)CSc2nc3ccccc3[nH]2)c1, the Potency is reported as inconclusive: 3.29 µM [inhibitor, partial curve, poor fit]. With CN(C(=O)COC(=O)c1cccc(S(=O)(=O)N2CCCCC2)c1)C1CCS(=O)(=O)C1 (stereo unspecified) the Potency was “inactive”. With C/C=C(\C)CN1CCC(Oc2ccc(C(=O)NCc3ccccn3)cc2)CC1 the Potency was “inactive”. In the case of Cc1cccc(NC(=O)CSc2nnc(NC(=O)C3CC3)s2)c1C, the Potency is reported as “inactive”. For O=C1CCCCC1C(=O)c1cn(-c2ccc(Cl)c(Cl)c2)nn1 (stereo unspecified), the Potency was inconclusive: 16.5 µM [inhibitor, single point]. In the case of CCCCn1c(=O)[nH]c(=O)c2c1nc(-c1ccc([N+](=O)[O-])cc1)n2CC, the Potency is reported as inconclusive: 18.5 µM [inhibitor, single point]. For CCN(CC(=O)Nc1c(F)cccc1F)C(=O)c1ccc(S(=O)(=O)N2CCCCCC2)cc1, the Potency was inconclusive: 10.4 µM [inhibitor, single point]. With Nc1nc2sc3c(c2cc1C(=O)NCC(=O)O)CCCC3 the Potency was inconclusive: 8.28 µM [inhibitor, partial curve]. In the case of Cc1ccc(OCCn2cc(C#N)c3ccccc32)cc1, the Potency is reported as inconclusive: 4.65 µM [inhibitor, partial curve, poor fit]. In the case of CCC(C)NC(=O)c1cc(S(=O)(=O)N2CCCCC2)c[nH]1 (stereo unspecified), the Potency is reported as inconclusive: 18.5 µM [inhibitor, single point].
